{"source": "PubChem BioAssay AID651640", "about": "(Broad Institute, 2012)", "note": "Where “and” joins values, the source holds several entries; their conditions need not be identical. Identical values can stand only once. In all, about 350,000 compounds went through this assay and about 6,000 (1.7%) were called active. This list was built around the results that the source calls inconclusive (neither active nor inactive); the mix of calls is not that of the screen. No stated cut-off is given here; in the data, active means CPE inhibition above about 20% (passing the limit was not always enough); inconclusive means no clear call, values can overlap the other calls; tested in BHK-21 cells. Some compounds were tested as several samples or in several runs, with calls that do not always agree.", "data": [{"assay": "protection of cells from dengue 2 killing – plate reader, single concentration, primary screen (AID 651640);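 further: 0% = median of neutral control wells and 100% = median of positive control wells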", "conditions": "DENV2-infected cells, cytopathic effect rescue, at 9.99 µM, hits give high values", "values": [{"smiles": "Cc1ccc(CNC(=O)CCCC(=O)c2ccccc2)cc1", "CPE inhibition": "inactive: 0.221%"}, {"smiles": "C[C@H]1CN([C@@H](C)CO)C(=O)c2cc(NC(=O)CCC(F)(F)F)ccc2O[C@@H]1CN(C)S(C)(=O)=O", "CPE inhibition": "active: 21%"}, {"smiles": "c1ccc(CN(CC2=NCCN2)c2ccccc2)cc1", "CPE inhibition": "inactive: -4.67% and inactive: 14.4%"}, {"smiles": "COc1ccc(-n2nnnc2/C(=C/N(C)C)C(=O)c2ccccc2)cc1", "CPE inhibition": "inconclusive: 39.1%"}, {"smiles": "C[C@@H]1CN([C@H](C)CO)S(=O)(=O)c2ccc(C#CC3CC3)cc2O[C@H]1CN(C)Cc1ccccc1F", "CPE inhibition": "inconclusive: 41.1%"}, {"smiles": "CCCn1c(=O)c2c(C(F)(F)F)cc(-c3cccs3)nc2n(CCC)c1=O", "CPE inhibition": "inconclusive: 28.2%"}, {"smiles": "CCCC#Cc1ccc([C@H]2[C@@H](CO)N3C(=O)CN(C(=O)NC4CCCC4)C[C@@H]23)cc1", "CPE inhibition": "active: 30.6%"}, {"smiles": "CC(=O)N/C(=C\\c1ccccc1)C(=O)OCC(=O)N1CCCCCC1", "CPE inhibition": "inconclusive: 32%"}, {"smiles": "NC(=O)CC(NC(=O)c1ccccc1)c1ccc(N2CCCCCC2)c([N+](=O)[O-])c1", "note": "(stereo unspecified)", "CPE inhibition": "inconclusive: 39.1%"}, {"smiles": "C[C@@H]1CN([C@H](C)CO)C(=O)c2cc(NC(=O)Nc3cccc4ccccc34)ccc2O[C@@H]1CN(C)Cc1ccc(C(=O)Nc2ccccc2N)cc1", "CPE inhibition": "inconclusive: 26.9%"}, {"smiles": "Cc1noc(NS(=O)(=O)c2ccc(NC(=O)C(Cl)(Cl)Cl)cc2)c1C", "CPE inhibition": "inconclusive: 26.7%"}, {"smiles": "O=C(C[C@H]1C[C@H]2c3cc(NS(=O)(=O)c4ccc(F)cc4)ccc3O[C@H]2[C@H](CO)O1)N1CCCCC1", "CPE inhibition": "inconclusive: 63.1%"}, {"smiles": "CO[C@H]1CN(C)C(=O)c2ccc(NC(=O)c3cccc(F)c3)cc2OC[C@@H](C)N(CC2CC2)C[C@@H]1C", "CPE inhibition": "inactive: -8.68%"}, {"smiles": "C[C@H](CO)N1C[C@H](C)[C@H](CN(C)C(=O)Nc2cc(F)ccc2F)Oc2ncc(C#CCN(C)C)cc2C1=O", "CPE inhibition": "inconclusive: 37%"}, {"smiles": "O=C(C[C@@H]1CC[C@@H]2[C@H](COC[C@H](O)CN2C(=O)Nc2ccc(C(F)(F)F)cc2)O1)NCCc1ccncc1", "CPE inhibition": "inactive: 0.99%"}, {"smiles": "CCOC(=O)C1CCN(C(=O)c2c(-c3ccccc3)noc2C)CC1", "CPE inhibition": "inactive: 2.22%"}, {"smiles": "CCCCNC(=S)Nc1ccc(OC)nc1", "CPE inhibition": "inactive: -3.23%"}, {"smiles": "CCOC(=O)[C@]12CCCC=C1N(CCC1=CCCCC1)C(=O)[C@H](CC(=O)NCc1cccc3ccccc13)C2", "CPE inhibition": "active: 21.7%"}, {"smiles": "Cc1nc(C(F)(F)F)ccc1C(=O)N1CCC1(C)C(=O)NCc1ccc(Cl)cc1", "note": "(stereo unspecified)", "CPE inhibition": "active: 68.8%"}, {"smiles": "COC(=O)Cc1nc2c(N)nc(N)nc2[nH]c1=O", "CPE inhibition": "inconclusive: 20.5%"}, {"smiles": "COc1ccc2c3c(n(C)c2c1)[C@H](CO)N(C(=O)NC(C)C)CC31CCN(CC2CCCC2)CC1", "CPE inhibition": "active: 39.5%"}, {"smiles": "COCC#Cc1ccc2c(c1)O[C@H](CN(C)C(=O)C1CCCCC1)[C@@H](C)CN([C@H](C)CO)S2(=O)=O", "CPE inhibition": "inconclusive: 44.4%"}, {"smiles": "c1ccc2c(c1)CSc1ccccc1N2", "CPE inhibition": "inactive: 9.74%"}, {"smiles": "Cn1cc(CN2CCC(C(=O)NC(c3ccc(-c4ccccc4)cc3)c3cnccn3)CC2)c2ccccc21", "note": "(stereo unspecified)", "CPE inhibition": "inconclusive: 43.4%"}, {"smiles": "CCC[C@@H]1CCCC/C=C\\CCCC(=O)OCCN1C(=O)OC(C)(C)C", "CPE inhibition": "inconclusive: 26%"}, {"smiles": "COC(=O)CCCC[C@@H]1O[C@H](CCc2ccccc2)Cc2[nH][nH]c(=O)c21", "CPE inhibition": "inconclusive: 55.7%"}, {"smiles": "COc1ccc(NC(=O)N(C)C[C@@H]2Oc3ncc(C#CC(C)C)cc3C(=O)N([C@@H](C)CO)C[C@@H]2C)cc1", "CPE inhibition": "active: 52.5%"}, {"smiles": "Fc1ccccc1COc1ccc2ccccc2c1CNc1nn[nH]n1", "CPE inhibition": "inactive: 1.98%"}, {"smiles": "COC(=O)c1ccc2c(C)c(C3(O)CCCCC3)[nH]c2c1", "CPE inhibition": "inconclusive: 48.8%"}, {"smiles": "O=C(NCCCn1ccnc1)C1CC(c2ccccc2Cl)=NO1", "note": "(stereo unspecified)", "CPE inhibition": "inconclusive: 24.2%"}, {"smiles": "COc1ccc(NC(=O)Nc2ccc3c(c2)C(=O)N([C@@H](C)CO)C[C@@H](C)[C@@H](CN(C)S(=O)(=O)c2ccc(OC)cc2)O3)cc1", "CPE inhibition": "inconclusive: 57.5%"}, {"smiles": "O=C(C[C@@H]1CC[C@H]2[C@@H](COC[C@@H](O)CN2C(=O)C2CC2)O1)NCc1ccncc1", "CPE inhibition": "inactive: -3.39%"}, {"smiles": "C[C@H]1CCCCO[C@H](CN(C)S(=O)(=O)c2ccc(Cl)cc2)[C@@H](C)CN([C@@H](C)CO)C(=O)c2cc(NC(=O)Cc3ccccc3)ccc2O1", "CPE inhibition": "active: 109%"}, {"smiles": "Nc1cccc(-c2cccc3nncn23)c1", "CPE inhibition": "inconclusive: 24.5%"}, {"smiles": "O=C(NCc1ccccn1)[C@@H]1CCCN1C(=O)[C@@H]1CCCN1C(=O)c1c(F)cccc1F", "CPE inhibition": "inconclusive: 61.3%"}, {"smiles": "Cc1ccc(CSCC(=O)N(C)CC(=O)Nc2ccc(C)cc2)cc1", "CPE inhibition": "inconclusive: 33.5%"}, {"smiles": "COc1ccc(-c2cc(N)n(S(=O)(=O)c3ccc(C)cc3)n2)c(OC)c1", "CPE inhibition": "active: 21.5%"}, {"smiles": "O=C(NCCN1CCOCC1)c1ccc2c(c1)N(Cc1ccc(F)cc1)C(=O)CS2", "CPE inhibition": "active: 63.6%"}, {"smiles": "COc1ccc([C@H]2C=C(C(=O)N3CCN(Cc4ccc5c(c4)OCO5)CC3)O[C@@H](OCc3ccc(CO)cc3)C2)cc1", "CPE inhibition": "inconclusive: 21.7%"}, {"smiles": "Cc1noc(C)c1NC(=O)Nc1ccc2c(c1)C(=O)N([C@@H](C)CO)C[C@H](C)[C@H](CN(C)Cc1ccccc1)O2", "CPE inhibition": "active: 23.2%"}, {"smiles": "O=C(C[C@H]1CC[C@H]2[C@@H](COC[C@H](O)CN2C(=O)c2cccnc2)O1)NCc1ccccc1", "CPE inhibition": "inconclusive: 29.4%"}, {"smiles": "COc1ccc2[nH]c3c(c2c1)CCN1C(=O)C(CC(=O)NCCN2CCOCC2)C[C@H](C(=O)N2CCOCC2)[C@@]31C", "note": "(stereo partly specified)", "CPE inhibition": "inconclusive: 34.7%"}, {"smiles": "CC(Nc1nc(-c2ccccc2F)nc2ccccc12)c1ccccc1", "note": "(stereo unspecified)", "CPE inhibition": "inconclusive: 39.7%"}, {"smiles": "CC1=CC2=NC(=O)/C(=C\\c3cc(C)n(-c4ccccc4)c3C)C(=N)N2O1", "CPE inhibition": "inconclusive: 23.2%"}, {"smiles": "COCCNC(=O)c1cc(-c2ccccc2)n(Cc2cc(C)no2)n1", "CPE inhibition": "active: 21.7%"}, {"smiles": "C[C@@H]1CCCCO[C@@H](CN(C)Cc2ccc(Cl)c(Cl)c2)[C@@H](C)CN([C@H](C)CO)C(=O)c2cc(NC(=O)Nc3ccccc3)ccc2O1", "CPE inhibition": "inactive: 2.45% and inactive: -12.4%"}, {"smiles": "C=CCSc1nnc(NC(=O)COc2ccccc2)s1", "CPE inhibition": "inconclusive: 28.7%"}, {"smiles": "COc1ccc(-n2nc(C(=O)NCC(=O)N3CCN(c4ccccc4F)CC3)c3ccccc3c2=O)cc1OC", "CPE inhibition": "inconclusive: 23%"}, {"smiles": "COCC(=O)N1CC[C@@H]2[C@H]1c1cc(C#Cc3ccc(OC)cc3)ccc1N[C@@H]2CO", "CPE inhibition": "inconclusive: 49.6%"}, {"smiles": "O=S(=O)(c1ccsc1)N1CC=C(c2ccccc2)CC1", "CPE inhibition": "inconclusive: 37.8%"}, {"smiles": "CC(C)C[C@H]1CNC(=S)N1C[C@H]1CCCN1C[C@H](Cc1ccc(O)cc1)N1C[C@H](Cc2ccccc2)N(CC2CCCCC2)C1=S", "CPE inhibition": "inconclusive: 89.9%"}, {"smiles": "C[C@H]1CN([C@@H](C)CO)C(=O)c2cc(NC(=O)Nc3ccc(F)cc3)ccc2O[C@H]1CN(C)S(=O)(=O)c1ccccc1", "CPE inhibition": "inconclusive: 25.2%"}, {"smiles": "COc1ccc2c3c([nH]c2c1)[C@@H](CO)N(C(=O)c1cnccn1)CC31CCN(S(C)(=O)=O)CC1", "CPE inhibition": "active: 33.7%"}, {"smiles": "Cc1ccc(S(=O)(=O)N2CCOCC2)cc1NC(=O)CNC(C)c1ccccc1", "note": "(stereo unspecified)", "CPE inhibition": "inconclusive: 22.7%"}, {"smiles": "COCC(=O)Nc1ccc2c(c1)[C@H]1C[C@H](CC(=O)NCc3cccc(F)c3)O[C@H](CO)[C@H]1O2", "CPE inhibition": "inactive: 11%"}, {"smiles": "O=C(C[C@@H]1CC[C@@H]2[C@H](COC[C@@H](O)CN2S(=O)(=O)c2ccc(F)cc2)O1)NCc1ccc(Cl)c(Cl)c1", "CPE inhibition": "active: 29.1%"}, {"smiles": "COc1cccc(/C=N/Nc2ccc([N+](=O)[O-])cc2)c1O", "CPE inhibition": "inconclusive: 28.3%"}, {"smiles": "Cc1noc(C)c1COc1cccc(C(=O)Nc2cccnc2)c1", "CPE inhibition": "inconclusive: 21.9%"}, {"smiles": "C[C@@H]1CN([C@@H](C)CO)C(=O)CCCn2nncc2CO[C@H]1CN(C)C(=O)c1ccccc1", "CPE inhibition": "inconclusive: 35.1%"}, {"smiles": "O=C(C[C@@H]1CC[C@@H](NC(=O)Nc2ccccc2F)[C@H](CO)O1)NCc1ccc(-c2ccccc2)cc1", "CPE inhibition": "inactive: 6.93%"}, {"smiles": "CC(C)NC(=O)Nc1ccc2c(c1)C(=O)N([C@@H](C)CO)C[C@H](C)[C@H](CN(C)C(=O)CCC(F)(F)F)OCCCC[C@H](C)O2", "CPE inhibition": "inconclusive: 48.8%"}, {"smiles": "COCC(=O)Nc1ccc2c(c1)[C@@H]1C[C@H](CC(=O)NC3CCCCC3)O[C@H](CO)[C@@H]1O2", "CPE inhibition": "active: 56%"}, {"smiles": "Cc1ccc(C(=O)CN(Cc2ccccc2)C2=NCCS2)cc1", "CPE inhibition": "inactive: 8.71%"}, {"smiles": "CCOC(=O)c1cccc(NC(=O)CN2C(=O)C3CC=CCC3C2=O)c1", "note": "(stereo unspecified)", "CPE inhibition": "active: 76%"}, {"smiles": "CCCN1[C@@H]2c3ccc(-c4ccncc4)c(=O)n3C[C@H]1[C@H](CO)[C@H]2C(=O)NCC1CC1", "CPE inhibition": "inactive: -10%"}, {"smiles": "CCN(C(=O)Cn1nnc(-c2ccccc2)n1)C1CCS(=O)(=O)C1", "note": "(stereo unspecified)", "CPE inhibition": "inconclusive: 42.7%"}, {"smiles": "C[C@H](CO)N1C[C@H](C)[C@H](CN(C)CC2CCCCC2)Oc2c(NC(=O)C3CCCCC3)cccc2C1=O", "CPE inhibition": "inactive: -6.04%"}, {"smiles": "CCCC(=O)N1CCCC1(C)C(=O)Nc1cc(C)ccc1C", "note": "(stereo unspecified)", "CPE inhibition": "inconclusive: 46.7%"}, {"smiles": "COc1ccc(NC(=O)Nc2ccc3c(c2)CC(=O)N([C@H](C)CO)C[C@@H](C)[C@@H](CN(C)C(=O)Nc2cccc4ccccc24)O3)cc1", "CPE inhibition": "inconclusive: 20.2%"}, {"smiles": "O=C(Nc1ccccc1F)N1CC(=O)N2[C@@H](CO)[C@@H](c3ccc(-c4cccnc4)cc3)[C@@H]2C1", "CPE inhibition": "inconclusive: 26.8%"}, {"smiles": "CC(=O)N(C)C[C@@H]1Oc2cc(Br)ccc2S(=O)(=O)N([C@H](C)CO)C[C@@H]1C", "CPE inhibition": "active: 36.2%"}]}]}
